Test results reported in publication PMC12049415.
These are yes or no findings as the source states them, for the method shown. Binding seen in cells or lysates may run through a third protein. Some results given as binding are weak or reduced against the parent protein; the word gives no strength. Each block holds one substance with its values, some of them ahead of it.

Chains of the proteins cited; added tags and fusions are not shown.
UniProt Q86VY4: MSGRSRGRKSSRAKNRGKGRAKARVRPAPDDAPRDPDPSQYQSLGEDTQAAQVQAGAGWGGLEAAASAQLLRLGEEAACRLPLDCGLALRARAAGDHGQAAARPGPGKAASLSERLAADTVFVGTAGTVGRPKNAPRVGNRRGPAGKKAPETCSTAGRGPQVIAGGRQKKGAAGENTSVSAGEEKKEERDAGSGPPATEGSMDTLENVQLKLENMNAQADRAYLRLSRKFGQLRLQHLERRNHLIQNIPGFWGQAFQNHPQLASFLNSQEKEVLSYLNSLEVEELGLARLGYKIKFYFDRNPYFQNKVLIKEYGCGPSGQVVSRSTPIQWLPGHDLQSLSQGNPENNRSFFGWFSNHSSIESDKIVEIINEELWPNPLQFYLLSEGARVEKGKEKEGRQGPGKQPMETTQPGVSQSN

Columns and labels:
[1] = molecular target: TSPYL5, exogenous, tagged (pcDNA3.1(+)) (human) (UniProt Q86VY4); experiment: co-IP; exogenous tagged TSPYL5 and G3BP1 in SK-N-SH cells, IP with anti-HA or anti-MYC antibodies, western blot
[2] = molecular target: G3BP stress granule assembly factor 1 (G3BP1), endogenous (human (endogenous in SK-N-SH and SH-SY5Y)) (UniProt Q13283); experiment: co-IP; endogenous proteins, lysates of SK-N-SH (and SH-SY5Y), antibody overnight at 4 °C, Protein A+G agarose, western blot; also in cells with G3BP1 or TSPYL5 overexpression and after arsenate
[3] = molecular target: G3BP stress granule assembly factor 1 (G3BP1), endogenous (human (endogenous in SK-N-SH and SH-SY5Y)) (UniProt Q13283); experiment: co-IP; nuclear proteins isolated from SK-N-SH cells, with and without TSPYL5 overexpression
[4] = molecular target: G3BP stress granule assembly factor 1 (G3BP1), endogenous (human (endogenous in SK-N-SH and SH-SY5Y)) (UniProt Q13283); experiment: co-IP; two-step Co-IP in SK-N-SH cells
[5] = molecular target: G3BP stress granule assembly factor 1 (G3BP1), endogenous (human (endogenous in SK-N-SH and SH-SY5Y)) (UniProt Q13283); experiment: co-IP; p53 with G3BP1 in the presence of TSPYL5 (Supplementary Fig. 10a, b; legend and set-up not shown)
[6] = molecular target: RAN binding protein 2 (RanBP2), endogenous (human (endogenous in SK-N-SH)) (UniProt P49792); experiment: co-IP; endogenous proteins, lysates of SK-N-SH (and SH-SY5Y), antibody overnight at 4 °C, Protein A+G agarose, western blot; also in cells with G3BP1 or TSPYL5 overexpression and after arsenate
[7] = molecular target: RAN binding protein 2 (RanBP2), endogenous (human (endogenous in SK-N-SH)) (UniProt P49792); experiment: co-IP; nuclear proteins isolated from SK-N-SH cells, with and without TSPYL5 overexpression
[8] = molecular target: RAN binding protein 2 (RanBP2), endogenous (human (endogenous in SK-N-SH)) (UniProt P49792); experiment: co-IP; two-step Co-IP in SK-N-SH cells
[9] = molecular target: TSPY-like 5 (TSPYL5), endogenous (human (endogenous in SK-N-SH and SH-SY5Y)) (UniProt Q86VY4); experiment: co-IP; endogenous proteins, lysates of SK-N-SH (and SH-SY5Y), antibody overnight at 4 °C, Protein A+G agarose, western blot; also in cells with G3BP1 or TSPYL5 overexpression and after arsenate

binding [1]: binds
Substance: G3BP1, exogenous, tagged (pcDNA3.1(+)) (from UniProt Q13283 1-466)

binding [2]: binds
binding [3]: binds
binding [4]: binds
Substance: RAN binding protein 2 (RanBP2), endogenous (from UniProt P49792 1-3224)

binding [5]: binds
binding [6]: binds
binding [7]: binds
binding [4]: binds
binding [8]: binds
Substance: p53, endogenous (wild-type) (from UniProt P04637 1-393)

binding [9]: binds
Substance: G3BP stress granule assembly factor 1 (G3BP1), endogenous (from UniProt Q13283 1-466)
